Results reported in PubChem BioAssay AID2685 (National Center for Advancing Translational Sciences (NCATS), 2010).
Among all 320,000 compounds or so, about 2,100 (0.66%) were called active. Inconclusive results, whose numbers are uncertain, are shown with a selection of clear calls. Calls come from the whole dose curve; as a rule, active = well fitted inhibition curve with a large enough effect in the signal ratio, with a control signal flat (not every such curve was filed as active); inconclusive = small, poorly fitted or top-dose-only effect, or effect the other way, or a change in a side signal; inactive = flat fitted curve, though single readings scatter; the % refers to the signal ratio. A potency beside an inconclusive call is a rough fit, not a confirmed value.

Test: qHTS Assay for Lipid Storage Modulators in Drosophila S3 Cells
Details: BODIPY lipid droplet fluorescence, 18-24 h, cells fed with added oleic acid; lipid storage change, negative = inhibition: at 46.1 µM (top of the series) unless noted
How it was run: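 Drosophila S3 cells got compounds at several concentrations plus oleic acid (400 uM solution). Laser-scanning cytometry with 488 nm excitation read lipid droplets at 500-530 nm and cells at 575-640 nm. Percent activity was relative to 20 uM Triacsin C.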
% is set by controls: 0 for no effect and ±100 for the full control effect; potency is the fitted concentration of half-maximal effect.

Row | SMILES | Potency | lipid storage change, negative = inhibition | outcome
1 | Cc1cccc(N=CC=C2OC(C)(C)C(C)(C)O2)c1 | inconclusive: 29.1 µM [activator, single point] |  | 
2 | O=C(O)c1ccc([N+](=O)[O-])c(CS(=O)(=O)c2ccc(Cl)cc2)c1 |  | inconclusive: -18.8% | 
3 | Cc1sc(NC(=O)c2ccccc2F)c(CN2CCCCC2C)c1C (stereo not given) |  | inconclusive: -68.4% | 
4 | Cn1cccc1Cc1nnc(SCC(=O)N2CCN(c3ccccc3)CC2)n1-c1ccc(F)cc1 |  | inconclusive: -26.8% | 
5 | CC1Sc2ccc(S(=O)(=O)CCC(=O)N3CCCC3)cc2NC1=O (stereo not given) |  | inconclusive: 20% | 
6 | Nc1nc2ccc(N3CCOCC3)cc2s1 |  | inconclusive: 37.2% | 
7 | O=C(Nc1cccc(NS(=O)(=O)c2ccc(S(=O)(=O)NC3CC3)cc2)c1)c1ccccn1 | inconclusive: 0.326 µM [activator, partial curve] |  | 
8 | Cc1cc(NC(=O)CC2CCCC2)n(-c2nc3ccccc3[nH]2)n1 | inconclusive: 1.16 µM [activator, full curve] |  | 
9 | COc1cc2c(cc1OC)C(C)N(C(=O)Nc1ccccc1)CC2 (stereo not given) |  | inconclusive: -21.4% | 
10 | CC(CNS(=O)(=O)c1ccc2c(c1)CC(=O)N2C)c1ccccc1 (stereo not given) |  | inconclusive: -134% | 
11 | CC(=O)CSc1nc2c(c(=O)[nH]c(=O)n2C)n1Cc1ccccc1Cl | inconclusive: 18.4 µM [activator, single point] |  | 
12 | COC(=O)c1cccc(NC2CC(=O)N(c3ccc(OC)c(OC)c3)C2=O)c1 (stereo not given) |  | inconclusive: 36.8% | 
13 | O=C(O)CSc1nc2ccc(C(=O)c3ccccc3)cc2[nH]1 | inconclusive: 16.4 µM [activator, partial curve, poor fit] |  | 
14 | O=C(COC(=O)C1CC1)Nc1ccc([N+](=O)[O-])cc1C(F)(F)F |  | inconclusive: -50.2% | 
15 | O=C(/C=N/O)Nc1ccc(F)cc1 | inconclusive: 32.6 µM [falling, single point] |  | 
16 | Cc1cc(NS(=O)(=O)c2ccc(NS(=O)(=O)c3ccc(CC(C)C)cc3)cc2)nc(C)n1 |  | inconclusive: -22.9% | 
17 | O=C(O)C1C2C=CC3(CN(C4CCCC4)C(=O)C13)O2 (stereo not given) |  | inconclusive: -32.6% | 
18 | CCOC(=O)c1cc(-c2ccc(C)cc2)nc2nc(SC)[nH]c(=O)c12 | inconclusive: 3.66 µM [activator, full curve, poor fit] |  | 
19 | CN(C#N)c1nc(Cl)nc(Nc2cccc(Cl)c2)n1 |  | inconclusive: 35.3% | 
20 | CC(NC(=O)c1cccc(C(F)(F)F)c1)C(c1ccccc1)N1CCOCC1 (stereo not given) |  | inconclusive: -3.87% | 
21 | O=C(CCOc1ccccc1)Nc1ccnn1C1CCN(Cc2ccc(O)cc2)CC1 |  | inconclusive: -5.66% | 
22 | N#CC1(C#N)COC23CCCCC2C1(C#N)C(=N)O3 (stereo not given) | inconclusive: 23.1 µM [activator, partial curve] |  | 
23 | CS(=O)(=O)c1ccc(C(=O)OCC(=O)NC2CCS(=O)(=O)C2)cc1[N+](=O)[O-] (stereo not given) | inconclusive: 6.51 µM [falling, single point] |  | 
24 | CN(Cc1ccccc1)C(=O)c1ccc(NC(=O)c2ccccc2)cc1 |  | inconclusive: -60.4% | 
25 | CC(C)(C)c1ccc(-n2nc(C(N)=O)c(O)cc2=O)cc1 |  | inconclusive: 32.9% | 
26 | O=C(OCC(=O)N1CCCC1=O)c1nc(Cl)ccc1Cl |  | inconclusive: 1.5% | 
27 | CC(=O)c1ccc(S(=O)(=O)N2CCC3(CC2)OCCO3)cc1 |  | inconclusive: -14% | 

Row | SMILES | Potency | lipid storage change, negative = inhibition | outcome
28 | Cc1cccc(OCc2nnc(SCC(=O)N(c3ccccc3)C3CCS(=O)(=O)C3)o2)c1 (stereo not given) |  | inconclusive: -35.9% | 
29 | CCc1ccccc1NC(=O)Nc1ccsc1C(=O)OC |  | inconclusive: 41.2% | 
30 | CC1CCC2(CC1)NC(=O)N(CC(=O)N1CCN(S(=O)(=O)c3ccc4c(c3)CCC4)CC1)C2=O (stereo not given) | inconclusive: 0.206 µM [falling, full curve, poor fit] |  | 
31 | Cc1nn(-c2ccccc2)c(C)c1CN |  | inconclusive: 6.01% | 
32 | COc1ccc(-n2c(-c3ccco3)nc3c(cnn3-c3ccccc3C)c2=O)cc1 |  | inconclusive: 3.37% | 
33 | CCN1CCN(c2ccc(S(=O)(=O)N3CCOCC3)cc2NC(=O)C(C)Oc2cccc(Cl)c2)CC1 (stereo not given) |  | inconclusive: -33.3% [at 0.0737 µM] | 
34 | O=[N+]([O-])c1ccc2c(c1)C=C1CCCCC1(N1CCCC1)O2 (stereo not given) |  | inconclusive: -27.4% | 
35 | CCc1csc(CCNC(=O)C2CCC(=O)N(Cc3ccccc3F)C2)n1 (stereo not given) |  | inconclusive: -16.8% | 
36 | Cc1ccc(NC(=O)CCN2C(=O)NC(C)(C)C2=O)cc1F |  | inconclusive | 
37 | CCOc1ccc(NC(=O)CC2C(=O)N(C)C(=S)N2CCCc2ccccc2)cc1 (stereo not given) |  | inconclusive: 21.1% | 
38 | O=C(NCC1CCCO1)c1ccc(Oc2ccc([N+](=O)[O-])cc2Cl)cc1 (stereo not given) | inconclusive: 16.4 µM [activator, single point] |  | 
39 | c1ccc(N2N=C(c3cccs3)CC2c2ccco2)cc1 (stereo not given) |  | inconclusive: 29.7% | 
40 | O=C(NCCc1ccc(C(F)(F)F)cc1)c1ccc2c(c1)OCO2 | inconclusive: 6.51 µM [falling, single point] |  | 
41 | CCc1nc(SCC(=O)c2cccc([N+](=O)[O-])c2)n[nH]1 |  | inconclusive: -86.2% | 
42 | CSc1ccccc1OCc1cc(C(=O)N(C)Cc2ccc(C)o2)no1 |  | inconclusive: 34.6% | 
43 | CCOC(=O)C(C)Sc1ncc(-c2ccccc2)cn1 (stereo not given) |  | inconclusive: -7.19% | 
44 | CN(C(=O)CSc1nnc(-c2ccco2)n1Cc1ccccc1)C1CCS(=O)(=O)C1 (stereo not given) | inconclusive: 1.84 µM [falling, partial curve] |  | 
45 | Cc1cc(NC(=O)c2ccc(Br)c([N+](=O)[O-])c2)no1 |  | inconclusive: 17.4% | 
46 | COC(=O)c1cc(=O)n(Cc2ccco2)c(=Nc2ccc(F)c(Cl)c2)s1 |  | inconclusive: 3.19% | 
47 | Cc1ccc2nc(SCc3nnc(-c4ccccc4Br)o3)[nH]c2c1 |  | inconclusive: -29% | 
48 | Cc1ccc(NC(=O)C2CCCCC2C(=O)O)cc1C (stereo not given) |  | inconclusive: -15.7% | 
49 | COc1ccc(NC(=O)c2ccccc2-c2ccccc2)c(C)c1 | inconclusive: 2.31 µM [falling, partial curve, poor fit] |  | 
50 | Cc1nnc(Nc2ccc(S(N)(=O)=O)cc2)c2ccccc12 |  | inconclusive: 24.4% | 
51 | O=C(Cn1ccc(=O)[nH]c1=O)NCCO | inconclusive: 3.66 µM [falling, single point] |  | 
52 | COc1cccc(CC2(CO)CCN(CC3=CC[C@H]4C[C@@H]3C4(C)C)CC2)c1 |  | inconclusive: 8.22% | 
53 | O=C(Cn1c(S(=O)(=O)Cc2ccccc2)nc2ccccc21)N1CCCCC1 |  | inconclusive: 8.92% | 
54 | Cc1ccc(/C=N/NC(=O)c2c(-c3ccccc3)noc2C)c(O)c1 |  | inconclusive: 23.4% | 

Row | SMILES | Potency | lipid storage change, negative = inhibition | outcome
55 | CC1CC(C)CN(C(=O)C2CC(=O)N(c3ccc(F)cc3)C2)C1 (stereo not given) |  | inconclusive: 24% | 
56 | O=C(CSc1cccc[n+]1[O-])c1ccc(Cl)cc1 |  | inconclusive: -13.8% | 
57 | Cn1nnnc1Sc1ncnc2scc(-c3ccc(Cl)cc3)c12 | inconclusive: 6.51 µM [activator, single point] |  | 
58 | COc1ccc(C(=O)N/N=C/c2ccc(OC)c(COc3c(F)c(F)cc(F)c3F)c2)cc1 | inconclusive: 23.1 µM [falling, single point] |  | 
59 | COc1ccc(-n2c(C)cc(C(=O)CSc3nnc(-c4cccs4)o3)c2C)cc1 |  | inconclusive: -12.6% | 
60 | CCn1c2ccccc2c2cc(N)ccc21 |  | inconclusive: 31.4% | 
61 | N#Cc1ccccc1CSc1nc(O)cc(=O)[nH]1 |  | inconclusive: -124% | 
62 | Cc1cnc(C(=O)OCC(=O)c2ccccc2)cn1 |  | inconclusive | 
63 | CC(=O)N1c2ccc(S(=O)(=O)N(C)CC(=O)NC3CCCCC3C)cc2CC1C (stereo not given) |  |  | inactive [at 46.1 µM]
64 | CC(C)C(=O)N(c1ccc(F)cc1)C1C=CS(=O)(=O)C1 (stereo not given) |  | inconclusive: -25.6% | 
65 | Cc1nn(-c2ccccc2)c(Cl)c1/C=N/NC(=O)c1ccn[nH]1 |  | inconclusive: -14% | 
66 | Cc1ccc(C(=O)C2=C(O)C(=O)N(CCN3CCOCC3)C2c2ccccn2)o1 (stereo not given) |  | inconclusive: 53.8% | 
67 | O=C(O)CCSc1nnc(COc2ccc([N+](=O)[O-])cc2)n1-c1ccccc1 |  | inconclusive: 4.79% | 
68 | N=c1c2c3c(sc2ncn1Nc1ccccc1)CCC3 |  | inconclusive: 25.1% | 
69 | Cc1ccc(N=Cc2ccc(N(C)C)cc2)cc1 |  | inconclusive: 17.6% | 
70 | CC1CCCN(S(=O)(=O)c2ccc(S(=O)(=O)N3CCC4(CC3)OCCO4)cc2)C1 (stereo not given) |  | inconclusive: -23.4% | 
71 | CCOc1ncccc1C(=O)Nc1ccc2nc(C)sc2c1 |  | inconclusive: -21.2% | 
72 | CCN(CC(=O)NC1CCS(=O)(=O)C1)C(=O)c1ccc(S(=O)(=O)N(CC)CC)cc1 (stereo not given) |  | inconclusive: 30.8% | 
73 | COc1ccc(COC(=O)C2=C(C)NC(=O)NC2c2ccccc2OC(C)C)cc1 (stereo not given) | inconclusive: 14.6 µM [falling, single point] |  | 
74 | O=C(NCCCNC(=O)c1cnccn1)c1cccc(F)c1 |  | inconclusive: 38.7% | 
75 | CN(C(=S)Nc1ccc(SC(F)F)cc1)C(c1ccccc1)c1ccccc1 |  | inconclusive: -38.7% | 
76 | COc1ccccc1-c1ccc(/C=C2/C=C(CC(C)C)OC2=O)o1 |  | inconclusive: 12.5% | 
77 | CC(=O)NC1(C(F)(F)F)N=C2SCCN2C1=O (stereo not given) | inconclusive: 0.58 µM [cytotoxic, single point] |  | 
78 | COc1ccc(CCN(C)C2CCCN(S(=O)(=O)c3ccccc3)C2)cc1OC (stereo not given) |  | inconclusive: 73.4% | 
79 | CC(C)c1nc2sc3c(=O)[nH]c(=S)[nH]c3c2c2c1CCCC2 |  | inconclusive: 20.4% | 
80 | Cc1ccc(S(=O)(=O)N2CCC(NC(=O)c3cccnc3)CC2)cc1Cl | inconclusive: 29.1 µM [falling, single point] |  | 

Structural class, the compounds so far containing bromine (2)
Row | SMILES | Potency | lipid storage change, negative = inhibition | outcome
45 | Cc1cc(NC(=O)c2ccc(Br)c([N+](=O)[O-])c2)no1 |  | inconclusive: 17.4% | 
47 | Cc1ccc2nc(SCc3nnc(-c4ccccc4Br)o3)[nH]c2c1 |  | inconclusive: -29% | 
